Laboratory results: the supplement of paper PMC10849652
The list shows a part of the results.

Chains of the proteins cited; added tags and fusions are not shown. Lines headed by an entry give the natural chain unless they say otherwise; changes in a name come on top.
UniProt Q70UQ0: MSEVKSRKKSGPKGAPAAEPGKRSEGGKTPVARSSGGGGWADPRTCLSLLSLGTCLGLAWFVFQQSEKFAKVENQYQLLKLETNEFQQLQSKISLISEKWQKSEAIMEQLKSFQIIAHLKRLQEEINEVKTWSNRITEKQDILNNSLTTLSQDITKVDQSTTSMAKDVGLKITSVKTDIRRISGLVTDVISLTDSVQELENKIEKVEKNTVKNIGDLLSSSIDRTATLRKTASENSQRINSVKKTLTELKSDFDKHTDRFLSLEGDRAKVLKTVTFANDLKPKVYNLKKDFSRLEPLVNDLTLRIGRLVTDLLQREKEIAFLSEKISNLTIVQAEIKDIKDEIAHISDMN
UniProt Q9NPH2: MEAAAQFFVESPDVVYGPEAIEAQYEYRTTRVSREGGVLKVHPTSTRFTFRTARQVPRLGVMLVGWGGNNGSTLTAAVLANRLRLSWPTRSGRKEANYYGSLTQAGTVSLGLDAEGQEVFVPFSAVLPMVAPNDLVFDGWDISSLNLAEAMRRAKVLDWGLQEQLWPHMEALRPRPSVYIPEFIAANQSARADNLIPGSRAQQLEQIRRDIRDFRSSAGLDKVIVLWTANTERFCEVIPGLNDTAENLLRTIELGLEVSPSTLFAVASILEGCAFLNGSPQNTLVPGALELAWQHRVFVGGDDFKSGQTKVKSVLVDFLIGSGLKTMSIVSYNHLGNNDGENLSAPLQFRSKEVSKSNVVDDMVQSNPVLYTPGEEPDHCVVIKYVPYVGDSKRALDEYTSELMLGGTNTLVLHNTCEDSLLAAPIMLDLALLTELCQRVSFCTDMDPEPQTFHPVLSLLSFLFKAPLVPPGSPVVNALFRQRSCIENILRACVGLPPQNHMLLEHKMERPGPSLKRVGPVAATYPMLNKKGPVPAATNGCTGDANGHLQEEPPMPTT
UniProt Q9Y5U9: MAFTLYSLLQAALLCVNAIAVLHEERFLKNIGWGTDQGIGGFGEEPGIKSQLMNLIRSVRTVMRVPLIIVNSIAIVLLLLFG
UniProt Q9Y6K9, whole entry, looked up: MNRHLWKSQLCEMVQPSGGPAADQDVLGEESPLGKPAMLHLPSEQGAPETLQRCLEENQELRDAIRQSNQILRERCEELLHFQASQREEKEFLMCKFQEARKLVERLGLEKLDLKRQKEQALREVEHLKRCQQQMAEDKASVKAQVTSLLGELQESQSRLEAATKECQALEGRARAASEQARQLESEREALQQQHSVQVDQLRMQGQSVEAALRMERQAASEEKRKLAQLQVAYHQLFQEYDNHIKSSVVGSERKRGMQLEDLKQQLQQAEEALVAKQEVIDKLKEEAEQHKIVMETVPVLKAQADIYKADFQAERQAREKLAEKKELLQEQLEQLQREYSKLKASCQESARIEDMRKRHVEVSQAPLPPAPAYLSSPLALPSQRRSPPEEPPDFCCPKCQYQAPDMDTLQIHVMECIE
UniProt A1L0T0: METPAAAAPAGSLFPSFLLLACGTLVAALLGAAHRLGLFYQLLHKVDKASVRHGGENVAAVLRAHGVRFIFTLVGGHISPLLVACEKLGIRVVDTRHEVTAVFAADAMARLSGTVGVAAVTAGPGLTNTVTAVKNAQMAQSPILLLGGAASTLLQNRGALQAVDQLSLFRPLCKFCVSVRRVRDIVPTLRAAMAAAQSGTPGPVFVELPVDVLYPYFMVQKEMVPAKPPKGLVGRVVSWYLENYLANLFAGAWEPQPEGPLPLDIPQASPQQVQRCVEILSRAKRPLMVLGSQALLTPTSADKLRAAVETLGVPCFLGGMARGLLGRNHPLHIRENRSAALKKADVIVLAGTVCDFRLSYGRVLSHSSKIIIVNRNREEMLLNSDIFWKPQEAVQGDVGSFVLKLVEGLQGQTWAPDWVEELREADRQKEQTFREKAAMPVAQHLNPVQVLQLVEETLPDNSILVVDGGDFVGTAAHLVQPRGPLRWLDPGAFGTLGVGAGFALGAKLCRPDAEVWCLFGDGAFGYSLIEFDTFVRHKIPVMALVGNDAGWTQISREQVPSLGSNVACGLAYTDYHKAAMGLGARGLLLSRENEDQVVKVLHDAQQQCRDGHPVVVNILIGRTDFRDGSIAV
UniProt Q06033: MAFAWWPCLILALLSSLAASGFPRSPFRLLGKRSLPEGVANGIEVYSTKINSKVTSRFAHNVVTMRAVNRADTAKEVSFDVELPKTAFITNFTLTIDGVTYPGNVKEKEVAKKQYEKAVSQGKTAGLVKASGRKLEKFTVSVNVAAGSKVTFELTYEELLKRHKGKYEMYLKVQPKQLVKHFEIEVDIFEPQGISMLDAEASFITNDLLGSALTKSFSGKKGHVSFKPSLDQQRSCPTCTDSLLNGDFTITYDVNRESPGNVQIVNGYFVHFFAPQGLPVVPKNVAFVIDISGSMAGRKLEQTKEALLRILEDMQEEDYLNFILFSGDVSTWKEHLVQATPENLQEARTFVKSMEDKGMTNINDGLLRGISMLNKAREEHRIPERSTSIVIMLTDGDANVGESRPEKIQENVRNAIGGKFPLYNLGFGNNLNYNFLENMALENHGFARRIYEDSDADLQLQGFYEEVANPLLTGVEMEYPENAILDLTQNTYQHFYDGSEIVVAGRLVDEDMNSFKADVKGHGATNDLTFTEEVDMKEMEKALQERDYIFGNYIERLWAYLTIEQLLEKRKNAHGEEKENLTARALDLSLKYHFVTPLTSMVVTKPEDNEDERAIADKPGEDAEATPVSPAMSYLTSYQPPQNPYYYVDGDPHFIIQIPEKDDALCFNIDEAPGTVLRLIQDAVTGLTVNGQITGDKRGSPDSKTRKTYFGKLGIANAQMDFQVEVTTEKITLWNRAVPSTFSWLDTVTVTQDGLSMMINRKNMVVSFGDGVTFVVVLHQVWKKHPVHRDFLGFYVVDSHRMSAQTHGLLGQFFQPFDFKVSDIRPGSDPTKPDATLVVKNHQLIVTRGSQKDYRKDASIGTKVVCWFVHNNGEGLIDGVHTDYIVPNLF
UniProt P20839, whole entry, looked up: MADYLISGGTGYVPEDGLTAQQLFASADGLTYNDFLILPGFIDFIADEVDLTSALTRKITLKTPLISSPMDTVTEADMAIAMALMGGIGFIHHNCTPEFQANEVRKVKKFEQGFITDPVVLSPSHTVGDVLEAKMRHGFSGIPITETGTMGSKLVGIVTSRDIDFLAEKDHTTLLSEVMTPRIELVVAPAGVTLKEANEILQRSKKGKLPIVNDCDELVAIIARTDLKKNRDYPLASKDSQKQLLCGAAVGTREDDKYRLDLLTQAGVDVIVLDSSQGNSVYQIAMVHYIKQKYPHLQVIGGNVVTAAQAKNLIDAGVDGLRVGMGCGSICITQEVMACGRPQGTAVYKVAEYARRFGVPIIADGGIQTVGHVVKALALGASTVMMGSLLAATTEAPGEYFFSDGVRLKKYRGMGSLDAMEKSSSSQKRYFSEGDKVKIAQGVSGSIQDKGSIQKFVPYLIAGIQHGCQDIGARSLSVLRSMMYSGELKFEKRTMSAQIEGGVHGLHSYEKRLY
UniProt Q9BT40: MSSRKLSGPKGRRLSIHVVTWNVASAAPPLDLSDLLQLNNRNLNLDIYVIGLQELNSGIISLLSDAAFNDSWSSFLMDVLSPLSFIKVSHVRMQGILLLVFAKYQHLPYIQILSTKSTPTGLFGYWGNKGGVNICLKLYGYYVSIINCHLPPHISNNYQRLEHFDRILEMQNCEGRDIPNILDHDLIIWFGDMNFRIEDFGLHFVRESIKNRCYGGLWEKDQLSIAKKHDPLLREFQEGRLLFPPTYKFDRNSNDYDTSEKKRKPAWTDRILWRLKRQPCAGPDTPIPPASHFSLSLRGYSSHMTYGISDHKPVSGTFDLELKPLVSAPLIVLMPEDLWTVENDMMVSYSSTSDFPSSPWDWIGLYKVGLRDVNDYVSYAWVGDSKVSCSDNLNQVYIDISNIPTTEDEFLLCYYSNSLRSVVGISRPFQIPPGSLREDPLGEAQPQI
UniProt P48735: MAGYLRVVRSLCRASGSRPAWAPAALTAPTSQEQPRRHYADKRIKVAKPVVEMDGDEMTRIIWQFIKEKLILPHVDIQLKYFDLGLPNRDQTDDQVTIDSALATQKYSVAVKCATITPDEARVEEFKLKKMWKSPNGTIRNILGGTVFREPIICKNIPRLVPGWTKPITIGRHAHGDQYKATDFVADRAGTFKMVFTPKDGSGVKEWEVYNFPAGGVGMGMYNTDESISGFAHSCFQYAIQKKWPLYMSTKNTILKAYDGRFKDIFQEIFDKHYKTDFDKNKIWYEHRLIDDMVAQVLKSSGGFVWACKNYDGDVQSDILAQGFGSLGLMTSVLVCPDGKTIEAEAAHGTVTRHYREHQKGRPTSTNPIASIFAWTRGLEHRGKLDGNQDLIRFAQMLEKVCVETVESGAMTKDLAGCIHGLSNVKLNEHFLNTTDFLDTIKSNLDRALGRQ
UniProt Q9H1K1: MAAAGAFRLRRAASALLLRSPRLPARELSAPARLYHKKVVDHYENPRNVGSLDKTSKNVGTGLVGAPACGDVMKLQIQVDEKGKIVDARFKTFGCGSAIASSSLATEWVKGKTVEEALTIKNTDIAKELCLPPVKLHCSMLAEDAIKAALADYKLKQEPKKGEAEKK
UniProt Q8WZA9: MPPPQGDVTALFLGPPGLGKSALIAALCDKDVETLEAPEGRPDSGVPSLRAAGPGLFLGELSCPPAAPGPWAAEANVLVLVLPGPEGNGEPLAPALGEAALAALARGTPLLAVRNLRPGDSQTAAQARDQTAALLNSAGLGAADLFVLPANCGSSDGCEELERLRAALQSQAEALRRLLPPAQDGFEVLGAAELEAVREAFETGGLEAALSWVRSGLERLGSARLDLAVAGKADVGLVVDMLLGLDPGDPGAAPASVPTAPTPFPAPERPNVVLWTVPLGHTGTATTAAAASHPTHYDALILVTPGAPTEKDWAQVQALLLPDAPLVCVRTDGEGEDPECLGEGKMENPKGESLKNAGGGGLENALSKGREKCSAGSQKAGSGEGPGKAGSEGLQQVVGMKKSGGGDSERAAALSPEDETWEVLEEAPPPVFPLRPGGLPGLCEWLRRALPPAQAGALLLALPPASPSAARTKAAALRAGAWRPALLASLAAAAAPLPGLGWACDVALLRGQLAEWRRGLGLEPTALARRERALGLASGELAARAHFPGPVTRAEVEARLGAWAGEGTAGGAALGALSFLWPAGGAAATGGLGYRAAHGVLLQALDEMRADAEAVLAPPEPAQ
UniProt O43837: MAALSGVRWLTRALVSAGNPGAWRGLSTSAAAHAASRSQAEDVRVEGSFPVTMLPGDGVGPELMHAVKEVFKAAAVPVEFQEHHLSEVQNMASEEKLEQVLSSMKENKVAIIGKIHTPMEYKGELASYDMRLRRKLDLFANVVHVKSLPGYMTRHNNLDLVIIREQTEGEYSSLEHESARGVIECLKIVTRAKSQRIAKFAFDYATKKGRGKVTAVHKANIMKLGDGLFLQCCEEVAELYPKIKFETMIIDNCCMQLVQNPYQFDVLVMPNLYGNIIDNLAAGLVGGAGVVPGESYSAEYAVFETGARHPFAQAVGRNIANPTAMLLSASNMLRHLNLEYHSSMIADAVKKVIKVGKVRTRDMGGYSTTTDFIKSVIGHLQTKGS
UniProt O14920: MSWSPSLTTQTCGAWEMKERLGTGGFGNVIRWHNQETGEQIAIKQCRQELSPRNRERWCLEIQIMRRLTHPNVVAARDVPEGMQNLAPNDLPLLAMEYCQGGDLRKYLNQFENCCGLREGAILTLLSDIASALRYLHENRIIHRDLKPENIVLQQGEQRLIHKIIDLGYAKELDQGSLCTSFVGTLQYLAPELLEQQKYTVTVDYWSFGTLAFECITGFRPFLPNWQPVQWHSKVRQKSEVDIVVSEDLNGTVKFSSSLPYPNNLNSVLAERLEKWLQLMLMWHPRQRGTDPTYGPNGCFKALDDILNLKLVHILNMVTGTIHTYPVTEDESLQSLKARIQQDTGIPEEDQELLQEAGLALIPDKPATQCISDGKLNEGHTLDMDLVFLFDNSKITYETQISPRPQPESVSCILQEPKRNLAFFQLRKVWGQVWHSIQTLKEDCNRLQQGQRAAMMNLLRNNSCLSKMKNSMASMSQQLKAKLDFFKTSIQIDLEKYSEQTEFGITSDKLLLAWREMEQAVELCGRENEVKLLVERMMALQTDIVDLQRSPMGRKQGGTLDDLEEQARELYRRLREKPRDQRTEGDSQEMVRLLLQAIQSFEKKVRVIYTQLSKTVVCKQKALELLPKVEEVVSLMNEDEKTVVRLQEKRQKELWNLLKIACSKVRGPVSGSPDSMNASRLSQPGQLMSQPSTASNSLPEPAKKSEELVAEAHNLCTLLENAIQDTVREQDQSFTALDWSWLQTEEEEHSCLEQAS

How the values were obtained:
Assay in all cases: log2 fold change, soluble protein after heating vs DMSO (PISA); higher = thermal stabilisation; K562 cells, 10 uM, 30 min; active = over 0.2 and 3.5 SD of the protein, either way, in both replicates (recomputed)
[1] = compound: CS(=O)(=O)c1ccc(-c2cnc(N)c(C(=O)Nc3ccccc3)n2)cc1
Summary of the method: (§1)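 K562 cells at 2×10^6 cells/mL were exposed to 10 μM compound for 30 min, then aliquots were heated for 3 min across 48°C-58°C, pooled, and extracted in PBS containing 0.5% NP-40 at 4°C. The supernatant after 21,000xg for 90 min was taken as soluble protein and measured by TMTpro 16plex LC-MS/MS with channel sums equalised. Thermal stability is reported relative to control samples, with values from duplicates. Fold changes are given on a log2 scale.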

crizotinib = compound: C[C@@H](Oc1cc(-c2cnn(C3CCNCC3)c2)cnc1N)c1c(Cl)ccc(F)c1Cl [crizotinib]
Summary of the method: as §1

[2] = compound: C[C@@H]1COCCN1C2=NC(=NC(=C2)C3(CC3)S(=O)(=O)C)C4=C5C=CNC5=CC=C4
Summary of the method: as §1

[3] = compound: C[C@H](C1=CC=C(C=C1)C(=O)NC2=C3C=CNC3=NC=C2)N
Summary of the method: as §1

duvelisib = compound: C[C@H](Nc1ncnc2nc[nH]c12)c1cc2cccc(Cl)c2c(=O)n1-c1ccccc1 [duvelisib]
Summary of the method: as §1

gandotinib = compound: Cc1cc(Nc2cc(CN3CCOCC3)c3nc(C)c(Cc4ccc(Cl)cc4F)n3n2)n[nH]1 [gandotinib]
Summary of the method: as §1

tozasertib = compound: Cc1cc(Nc2cc(N3CCN(C)CC3)nc(Sc3ccc(NC(=O)C4CC4)cc3)n2)n[nH]1 [tozasertib]
Summary of the method: as §1

[4] = compound: Cc1cc(SCc2sc(-c3ccc(C(F)(F)F)cc3)nc2C)ccc1OCC(=O)O
Summary of the method: as §1

doramapimod = compound: Cc1ccc(-n2nc(C(C)(C)C)cc2NC(=O)Nc2ccc(OCCN3CCOCC3)c3ccccc23)cc1 [doramapimod]
Summary of the method: as §1

ispinesib = compound: Cc1ccc(C(=O)N(CCCN)[C@@H](c2nc3cc(Cl)ccc3c(=O)n2Cc2ccccc2)C(C)C)cc1 [ispinesib]
Summary of the method: as §1

bafetinib = compound: Cc1ccc(NC(=O)c2ccc(CN3CC[C@H](N(C)C)C3)c(C(F)(F)F)c2)cc1Nc1nccc(-c2cncnc2)n1 [bafetinib]
Summary of the method: as §1

[5] = compound: Cc1cccc(CC(=O)N2CCc3c2ccc(-c2cn(C)c4ncnc(N)c24)c3F)n1
Summary of the method: as §1

nilotinib = compound: Cc1cn(-c2cc(NC(=O)c3ccc(C)c(Nc4nccc(-c5cccnc5)n4)c3)cc(C(F)(F)F)c2)cn1 [nilotinib]
Summary of the method: as §1

[6] = compound: Cc1nc(Nc2n[nH]c3c2CN(C(=O)N[C@H](CN(C)C)c2ccccc2)C3(C)C)c2sccc2n1
Summary of the method: as §1

dasatinib = compound: Cc1nc(Nc2ncc(C(=O)Nc3c(C)cccc3Cl)s2)cc(N2CCN(CCO)CC2)n1 [dasatinib]
Summary of the method: as §1

[7] = compound: Cc1ncc(-c2ccnc(Nc3ccc(S(C)(=O)=O)cc3)n2)n1C(C)C
Summary of the method: as §1

[8] = compound: Cn1cc(-c2ccc3c(c2)CCN3C(=O)Cc2cccc(C(F)(F)F)c2)c2c(N)ncnc21
Summary of the method: as §1

[9] = compound: Cn1cc(-c2ccc3nnc(C(F)(F)c4ccc5ncccc5c4)n3n2)cn1
Summary of the method: as §1

tipifarnib = compound: Cn1cncc1[C@@](N)(c1ccc(Cl)cc1)c1ccc2c(c1)c(-c1cccc(Cl)c1)cc(=O)n2C [tipifarnib]
Summary of the method: as §1

mubritinib = compound: FC(F)(F)c1ccc(/C=C/c2nc(COc3ccc(CCCCn4ccnn4)cc3)co2)cc1 [mubritinib]
Summary of the method: as §1

Row | Target | log2 fold change [1] | log2 fold change (crizotinib) | log2 fold change [2] | log2 fold change [3] | log2 fold change (duvelisib) | log2 fold change (gandotinib) | log2 fold change (tozasertib) | log2 fold change [4] | log2 fold change (doramapimod) | log2 fold change (ispinesib) | log2 fold change (bafetinib) | log2 fold change [5] | log2 fold change (nilotinib) | log2 fold change [6] | log2 fold change (dasatinib) | log2 fold change [7] | log2 fold change [8] | log2 fold change [9] | log2 fold change (tipifarnib) | log2 fold change (mubritinib)
1 | IKBIP (UniProt Q70UQ0) | inactive: -0.024 | inactive: 0.089 | inactive: 0.015 | inactive: 0.064 | inactive: 0.036 | inactive: -0.012 | inactive: -0.022 | inactive: -0.008 | inactive: 0.04 | inactive: 0.028 | inactive: -0.014 | inactive: -0.008 | inactive: -0.033 | inactive: -0.062 | inactive: 0.026 | inactive: -0.107 | inactive: 0.02 | inactive: 0.024 | inactive: 0.059 | inactive: -0.018
2 | ISYNA1 (UniProt Q9NPH2) | inactive: -0.008 | inactive: 0 | inactive: 0.043 | inactive: -0.091 | inactive: 0.047 | inactive: -0.027 | inactive: -0.05 | inactive: -0.037 | inactive: -0.044 | inactive: 0.02 | inactive: 0.116 | inactive: -0.029 | inactive: 0.067 | inactive: -0.066 | inactive: 0.021 | inactive: 0.023 | inactive: 0.009 | inactive: 0.01 | inactive: 0.013 | inactive: -0.011
3 | INF2 (UniProt Q27J81) | inactive: -0.012 | inactive: -0.093 | inactive: -0.211 | inactive: 0.056 | inactive: 0.001 | – | – | inactive: -0.021 | inactive: 0.049 | inactive: -0.066 | inactive: -0.125 | – | inactive: -0.062 | inactive: -0.149 | inactive: 0.036 | inactive: 0.006 | inactive: -0.057 | inactive: 0.031 | – | inactive: 0.062
4 | IER3IP1 (UniProt Q9Y5U9) | inactive: -0.027 | inactive: 0.157 | inactive: -0.006 | inactive: -0.264 | inactive: 0.036 | inactive: 0.032 | inactive: -0.023 | inactive: -0.078 | inactive: -0.033 | inactive: 0.137 | inactive: -0.127 | inactive: -0.073 | – | – | inactive: -0.051 | – | inactive: -0.019 | inactive: -0.157 | inactive: -0.044 | inactive: 0.12
5 | IKBKG isoform 2 (UniProt Q9Y6K9) | inactive: 0.049 | inactive: 0.032 | inactive: 0.06 | inactive: -0.05 | inactive: 0.007 | inactive: 0.037 | inactive: 0.006 | inactive: -0.052 | inactive: 0.016 | inactive: 0.077 | inactive: 0.003 | inactive: -0.018 | inactive: -0.072 | inactive: -0.029 | inactive: 0.109 | inactive: 0.025 | inactive: -0.047 | inactive: -0.111 | inactive: 0.012 | inactive: 0.026
6 | ITPA (UniProt Q9BY32) | inactive: 0.045 | inactive: 0.041 | inactive: 0.026 | inactive: -0.008 | inactive: 0.107 | inactive: -0.025 | inactive: -0.044 | inactive: 0.042 | inactive: -0.06 | inactive: 0.099 | inactive: -0.077 | inactive: -0.008 | inactive: 0.018 | inactive: 0.003 | inactive: 0.022 | inactive: 0.012 | inactive: 0.052 | inactive: 0.067 | inactive: -0.037 | inactive: 0.036
7 | ILVBL (UniProt A1L0T0) | inactive: 0.055 | inactive: 0 | inactive: 0.058 | inactive: 0.061 | – | inactive: 0.02 | – | inactive: -0.005 | inactive: -0.003 | active: 0.213 | inactive: 0.065 | inactive: -0.049 | inactive: 0.074 | inactive: 0.011 | inactive: -0.09 | inactive: -0.025 | inactive: 0.247 | inactive: -0.005 | inactive: -0.047 | inactive: 0.041
8 | ITIH3 (UniProt Q06033) | inactive: -0.113 | inactive: 0.398 | inactive: 0.098 | inactive: 0.175 | inactive: -0.073 | inactive: -0.024 | inactive: -0.067 | inactive: -0.161 | inactive: 0.195 | inactive: -0.014 | inactive: -0.102 | inactive: -0.075 | inactive: -0.027 | inactive: 0.095 | inactive: 0.057 | inactive: 0.252 | inactive: 0.321 | inactive: -0.056 | inactive: 0.041 | inactive: -0.202
9 | IMPDH1 isoform 6 (UniProt P20839) | inactive: 0.023 | inactive: -0.009 | inactive: -0.124 | inactive: 0.057 | inactive: -0.063 | inactive: 0.036 | inactive: 0.029 | inactive: 0.056 | inactive: 0.035 | inactive: -0.046 | inactive: 0.063 | inactive: 0.033 | inactive: -0.037 | inactive: 0.043 | inactive: 0.057 | inactive: -0.024 | inactive: -0.175 | inactive: 0.011 | inactive: 0.084 | inactive: -0.056
10 | INPP5K (UniProt Q9BT40) | inactive: -0.104 | inactive: -0.276 | inactive: -0.072 | inactive: 0.08 | inactive: 0.226 | inactive: 0.043 | inactive: -0.177 | inactive: -0.145 | inactive: 0.133 | inactive: -0.088 | – | inactive: -0.067 | inactive: 0.038 | inactive: 0.086 | inactive: -0.241 | inactive: -0.109 | inactive: 0.06 | inactive: 0.072 | – | inactive: -0.005
11 | IDH2 (UniProt P48735) | inactive: 0.032 | inactive: 0.097 | inactive: 0.159 | inactive: -0.028 | inactive: -0.01 | inactive: 0.028 | inactive: -0.04 | inactive: -0.011 | inactive: -0.019 | inactive: 0.173 | inactive: 0.029 | inactive: -0.002 | inactive: -0.021 | inactive: 0.051 | inactive: -0.02 | inactive: 0.018 | inactive: 0.08 | inactive: 0.048 | inactive: -0.027 | inactive: -0.011
12 | ISCU (UniProt Q9H1K1) | inactive: 0.057 | inactive: 0.063 | inactive: 0.077 | inactive: -0.002 | inactive: 0.051 | inactive: 0.008 | inactive: -0.018 | inactive: -0.057 | inactive: 0 | inactive: 0.019 | inactive: -0.107 | inactive: -0.012 | inactive: 0.255 | inactive: 0.05 | inactive: -0.016 | inactive: -0.005 | inactive: 0.004 | inactive: 0.021 | inactive: 0.038 | inactive: 0.038
13 | ITIH2 (UniProt P19823) | inactive: -0.155 | inactive: 0.163 | inactive: -0.041 | inactive: 0.206 | inactive: -0.267 | inactive: -0.078 | inactive: -0.033 | inactive: -0.187 | inactive: 0.164 | inactive: -0.066 | inactive: -0.104 | inactive: -0.097 | inactive: 0.093 | inactive: 0.016 | inactive: 0.127 | inactive: 0.41 | inactive: 0.254 | inactive: -0.164 | inactive: 0.049 | inactive: -0.335
14 | IRGQ (UniProt Q8WZA9) | inactive: -0.022 | inactive: 0.008 | inactive: 0.066 | inactive: -0.052 | inactive: -0.003 | inactive: -0.026 | inactive: 0.001 | inactive: 0.049 | inactive: 0.023 | inactive: -0.01 | inactive: -0.017 | inactive: 0.035 | inactive: -0.042 | inactive: -0.031 | inactive: -0.074 | inactive: 0.015 | inactive: 0.024 | inactive: 0.049 | inactive: -0.034 | inactive: 0.027
15 | IDH3B (UniProt O43837) | inactive: 0.033 | inactive: 0.051 | inactive: 0.16 | inactive: -0.041 | inactive: 0.009 | inactive: -0.012 | inactive: -0.068 | inactive: 0.034 | inactive: -0.07 | inactive: 0.103 | inactive: 0.012 | inactive: 0.057 | inactive: -0.061 | inactive: 0.017 | inactive: -0.007 | inactive: -0.032 | inactive: 0.039 | inactive: 0.004 | inactive: -0.045 | inactive: 0.054
16 | IKBKB (UniProt O14920) | inactive: 0.229 | inactive: -0.574 | inactive: -0.319 | inactive: 0.367 | inactive: -0.043 | – | inactive: 0.042 | inactive: 0.097 | inactive: 0.107 | inactive: -0.038 | inactive: -0.342 | – | inactive: 0.121 | inactive: -0.041 | inactive: 0.075 | inactive: -0.095 | inactive: -0.284 | inactive: -0.053 | inactive: -0.289 | inactive: 0.184

Records 4 to 5, quoted:
Row | Target | log2 fold change [1] | log2 fold change (crizotinib) | log2 fold change [2] | log2 fold change [3] | log2 fold change (duvelisib) | log2 fold change (gandotinib) | log2 fold change (tozasertib) | log2 fold change [4] | log2 fold change (doramapimod) | log2 fold change (ispinesib) | log2 fold change (bafetinib) | log2 fold change [5] | log2 fold change (nilotinib) | log2 fold change [6] | log2 fold change (dasatinib) | log2 fold change [7] | log2 fold change [8] | log2 fold change [9] | log2 fold change (tipifarnib) | log2 fold change (mubritinib)
4 | IER3IP1 (UniProt Q9Y5U9) | inactive: -0.027 | inactive: 0.157 | inactive: -0.006 | inactive: -0.264 | inactive: 0.036 | inactive: 0.032 | inactive: -0.023 | inactive: -0.078 | inactive: -0.033 | inactive: 0.137 | inactive: -0.127 | inactive: -0.073 | – | – | inactive: -0.051 | – | inactive: -0.019 | inactive: -0.157 | inactive: -0.044 | inactive: 0.12
5 | IKBKG isoform 2 (UniProt Q9Y6K9) | inactive: 0.049 | inactive: 0.032 | inactive: 0.06 | inactive: -0.05 | inactive: 0.007 | inactive: 0.037 | inactive: 0.006 | inactive: -0.052 | inactive: 0.016 | inactive: 0.077 | inactive: 0.003 | inactive: -0.018 | inactive: -0.072 | inactive: -0.029 | inactive: 0.109 | inactive: 0.025 | inactive: -0.047 | inactive: -0.111 | inactive: 0.012 | inactive: 0.026
